Data as given in US20110059962A1, “TRANSCRIPTION FACTOR MODULATING COMPOUNDS AND METHODS OF USE THEREOF” (priority 2009, published 2011).
Tags and fusion partners may be left off the protein sequences shown.

Biological target: T1, SoxS (Escherichia coli) (UniProt P0A9E2)
T1 sequence (looked up, limits assumed): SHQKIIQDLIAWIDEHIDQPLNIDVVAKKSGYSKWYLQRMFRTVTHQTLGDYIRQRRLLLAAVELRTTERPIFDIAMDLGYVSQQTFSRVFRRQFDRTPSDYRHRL
Assay: binding assay
Conditions: chemiluminescence plate assay, 20 nM protein, 2 nM DNA; binding inhibited by compounds; DNA sequence given only in Example 12; purified recombinant protein; protein details: 6xHis

CCGATTTAGCAAAACGTCGCATCGGTC (double strand) [biotinylated target dsDNA]
binding result: binds
